# Measured values from patent publication US20090022803A1, “Oral Formulations For Delivery of Catecholic Butanes Including Ndga Compounds” (priority 2005, published 2009).
# Read-outs that look alike come from different tables or passages of the source. The source gives many values for each of these; only a part stands here.
# Format: physicochemical
# Protocol: A 10 mL solution of M4N at a concentration of about 10 mg/mL in 40% BP-β-CD was made as follows. About 10 mL of the 40% HP-β-CD solution were added to a glass beaker containing a stir bar. The beaker was placed on a magnetic plate and the stir bar was set to stir at medium speed. About […] of M4N were slowly added to the 40% HP-β-CD in the center of the beaker with the aid of a spatula. The M4N/40% HP-β-CD mixture was stirred for 2 hr or until all M4N was uniformly suspended without any clumps being present. The M4N/40% HP-β-CD mixture was optionally heated at 80° C. for about 30 min. (or longer if a larger volume of solution was desired, for example, 1 hr at 80° C. for 100 mL of the M4N/HP-β-CD mixture), or longer as needed to ensure complete dissolution of M4N. […] The final M4N/40% HP-β-CD solution was stored at room temperature and was kept protected from light. This process may be scaled up or down to obtain the requisite volume or concentration of M4N. Formulations containing M4N in other cyclodextrin solutions may be similarly made, such as, for example, by substituting HP-β-CD in the process described above with other cyclodextrins. […]
# A 10 mL solution of M4N at a concentration of about 10 mg/mL in 50% HP-β-CD/0.5% HPMC was made as follows. About 10 mL of the 50% HP-β-CD/0.5% HPMC solution were added to a glass beaker containing a stir bar. The beaker was placed on a magnetic plate and the stir bar was set to stir at medium speed. About 100 mg of M4N were slowly added to the 50% HP-β-CD/0.5% HPMC in the center of the beaker with the aid of a spatula. The M4N/50% HP-β-CD/0.5% HPMC mixture was stirred for 24 hr or until all M4N was uniformly suspended without any clumps being present. The M4N/50% HP-β-CD/0.5% HPMC mixture was heated at about 90° C. for about 30 min. (or longer if a larger volume of solution was desired, for example, 1 hr at 90° C. for 500 mL of the M4N/50% HP-β-CD/0.5% HPMC mixture), or longer as needed to ensure complete dissolution of M4N. […] The final M4N/50% HP-β-CD/0.5% HPMC solution was stored at room temperature and was kept protected from light.
# A 10 mL solution of M4N at a concentration of about 20 mg/mL in 5% EC (w/v) (the “EC formulation”) was made as follows. About 10 mL of 5% EC formulation, made as described above, were added to a glass beaker containing a stir bar. The beaker was placed on a magnetic plate and the stir bar was set to stir at medium speed, and covered with a round Teflon® cover. About 200 mg of M4N were slowly added to the 5% EC formulation in the center of the beaker with the aid of a spatula to prevent M4N from sticking to the beaker wall. The M4N/EC mixture was stirred for 2 hr or until all M4N had dissolved or was uniformly suspended without any clumps being present. The M4N/EC mixture was heated at about 60° C. for about 30 min. (or longer if a larger volume of solution was desired, for example, 1 hr at 60° C. for 500 mL of the M4N/EC mixture), or longer as needed to ensure complete dissolution of M4N. […] The final M4N/EC solution was stored at room temperature and was kept protected from light.
# A 10 mL solution of M4N at a concentration of about 50 mg/mL in sesame oil was made as follows. About 10 mL of sesame oil were added to a glass beaker containing a stir bar. The beaker was placed on a magnetic plate and the stir bar was set to stir at medium speed. About 500 mg of M4N were slowly added to the sesame oil in the center of the beaker with the aid of a spatula to prevent M4N from sticking to the beaker wall. The M4N/sesame oil mixture was stirred for about 2 hr or until all M4N had dissolved or was uniformly suspended without any clump being present. The M4N/sesame oil mixture was heated at about 60° C. for about 30 min. (or longer if a larger volume of solution was desired, for example, 1 hr at 60° C. for 500 mL of the M4N/sesame oil mixture), or longer as need to ensure complete dissolution of M4N. […]
structure (smiles),measurement,setting,value
"COc1ccc(C[C@@H](C)[C@@H](C)Cc2ccc(OC)c(OC)c2)cc1OC [Formulation M4N, meso-1,4-bis(3,4-dimethoxyphenyl)-2,3-dimethylbutane]",Dissolution After Heating,"M4N 1 mg/mL in Corn Oil, 60° C.",Y at 60 °C
same,Dissolution After Rotation,M4N 1 mg/mL in Peppermint Oil,Y
same,Dissolution After Rotation,"M4N 2.4 mg/mL, Sesame Oil, Tween ® 20 and Glycerol, 10% Oil emulsion in 90% saline",Y
same,Dissolution After Rotation,"M4N 2.9 mg/mL, Sesame Oil and Tween ® 20, 10% Oil emulsion in 90% saline",Y
same,Dissolution After Rotation,M4N 10 mg/mL in 1% CMC (High Viscosity),N
same,Dissolution After Heating,"M4N 10 mg/mL in 1% CMC (High Viscosity), 90° C.",N at 90 °C
same,Dissolution After Rotation,M4N 10 mg/mL in 1% CMC (Low Viscosity),suspension
same,Dissolution After Rotation,M4N 10 mg/mL in 2% MC (Low viscosity),N
same,Dissolution After Heating,"M4N 10 mg/mL in 2% MC (Low viscosity), 90° C.",N at 90 °C
same,Dissolution After Rotation,M4N 10 mg/mL in 4% CMC (Low Viscosity),N
same,Dissolution After Heating,"M4N 10 mg/mL in 4% CMC (Low Viscosity), 90° C.",N at 90 °C
same,Dissolution After Heating,"M4N 10 mg/mL in 5% EC in EtOH, 40° C.",Y at 40 °C
same,Dissolution After Heating,"M4N 10 mg/mL in 50% HP-β-CD, 0.5% HPMC, 90° C.",Y at 90 °C
same,Dissolution After Rotation,M4N 10 mg/mL in Corn Oil,N
same,Dissolution After Heating,"M4N 10 mg/mL in Corn Oil, 60° C.",Y at 60 °C
same,Dissolution After Rotation,M4N 10 mg/mL in Mineral Oil,N
same,Dissolution After Heating,"M4N 10 mg/mL in Mineral Oil, 60° C.",Y at 60 °C
same,Dissolution After Rotation,M4N 10 mg/mL in Peppermint Oil,Y
same,Dissolution After Rotation,M4N 10 mg/mL in Sesame Oil,Y
same,Dissolution After Rotation,M4N 10 mg/mL in Soybean Oil,N
same,Dissolution After Heating,"M4N 10 mg/mL in Soybean Oil, 60° C.",Y at 60 °C
same,Dissolution After Rotation,M4N 20 mg/mL in 1% CMC (Low Viscosity),suspension
same,Dissolution After Heating,"M4N 20 mg/mL in 5% EC in EtOH, 60° C.",Y at 60 °C
same,Dissolution After Rotation,"M4N 20 mg/mL in 50% Peppermint Oil, 50% Sesame Oil",Y
same,Dissolution After Rotation,M4N 20 mg/mL in Corn Oil,N
same,Dissolution After Heating,"M4N 20 mg/mL in Corn Oil, 60° C.",Y at 60 °C
same,Dissolution After Rotation,M4N 20 mg/mL in Peppermint Oil,Y
same,Dissolution After Rotation,M4N 20 mg/mL in Sesame Oil,N
same,Dissolution After Heating,"M4N 20 mg/mL in Sesame Oil, 60° C.",Y at 60 °C
same,Dissolution After Rotation,"M4N 24.3 mg/mL in 75% Sesame Oil, 9% Tween ® 20, 16% Glycerol",N
same,Dissolution After Heating,"M4N 24.3 mg/mL in 75% Sesame Oil, 9% Tween ® 20, 16% Glycerol, 60° C.",Y at 60 °C
same,Dissolution After Rotation,"M4N 29 mg/mL in 89% Sesame Oil, 11% Tween ® 20",N
same,Dissolution After Heating,"M4N 29 mg/mL in 89% Sesame Oil, 11% Tween ® 20, 60° C.",Y at 60 °C
same,Dissolution After Heating,"M4N 30 mg/mL in 5% EC in EtOH, 60° C.",Y at 60 °C
same,Dissolution After Rotation,M4N 30 mg/mL in Olive Oil,N
same,Dissolution After Heating,"M4N 30 mg/mL in Olive Oil, 60° C.",Y at 60 °C
same,Dissolution After Rotation,M4N 30 mg/mL in Sesame Oil,N
same,Dissolution After Heating,"M4N 30 mg/mL in Sesame Oil, 60° C.",Y at 60 °C
same,Dissolution After Rotation,M4N 30 mg/mL in Soybean Oil,N
same,Dissolution After Heating,"M4N 30 mg/mL in Soybean Oil, 60° C.",Y at 60 °C
same,Dissolution After Rotation,"M4N 40 mg/mL in 50% Peppermint Oil, 50% PEG 300",N
same,Dissolution After Heating,"M4N 40 mg/mL in 50% Peppermint Oil, 50% PEG 300, 35° C.",Y at 35 °C
same,Dissolution After Rotation,"M4N 40 mg/mL in 50% Peppermint Oil, 50% PEG 400",N
same,Dissolution After Heating,"M4N 40 mg/mL in 50% Peppermint Oil, 50% PEG 400, 40° C.",Y at 40 °C
same,Dissolution After Rotation,"M4N 40 mg/mL in 50% Peppermint Oil, 50% Sesame Oil",N
same,Dissolution After Heating,"M4N 40 mg/mL in 50% Peppermint Oil, 50% Sesame Oil, 40° C.",Y at 40 °C
same,Dissolution After Rotation,"M4N 40 mg/mL in 50% Peppermint Oil, 50% Tween ® 20",N
same,Dissolution After Heating,"M4N 40 mg/mL in 50% Peppermint Oil, 50% Tween ® 20, 40° C.",Y at 40 °C
same,Dissolution After Rotation,"M4N 40 mg/mL in 85% Sesame Oil, 15% Tween ® 20",N
same,Dissolution After Heating,"M4N 40 mg/mL in 85% Sesame Oil, 15% Tween ® 20, 45° C.",Y at 45 °C
same,Dissolution After Rotation,M4N 40 mg/mL in Corn Oil,N
same,Dissolution After Heating,"M4N 40 mg/mL in Corn Oil, 60° C.",Y at 60 °C
same,Dissolution After Rotation,M4N 40 mg/mL in Peppermint Oil,N
same,Dissolution After Heating,"M4N 40 mg/mL in Peppermint Oil, 40° C.",Y at 40 °C
same,Dissolution After Heating,"M4N 50 mg/mL in 2.3% HPMC, 90° C.",N at 90 °C
same,Dissolution After Heating,"M4N 50 mg/mL in 5% EC in EtOH, 90° C.",Y at 90 °C
same,Dissolution After Heating,"M4N 50 mg/mL in 50% HP-β-CD, 0.5% HPMC, 90° C.",N at 90 °C
same,Dissolution After Rotation,M4N 50 mg/mL in Camillia Oil,N
same,Dissolution After Heating,"M4N 50 mg/mL in Camillia Oil, 60° C.",Y at 60 °C
same,Dissolution After Rotation,M4N 50 mg/mL in Corn Oil,N
same,Dissolution After Heating,"M4N 50 mg/mL in Corn Oil, 60° C.",Y at 60 °C
same,Dissolution After Rotation,M4N 50 mg/mL in Mineral Oil,N
same,Dissolution After Heating,"M4N 50 mg/mL in Mineral Oil, 60° C.",Y at 60 °C
same,Dissolution After Rotation,M4N 50 mg/mL in Sesame Oil,N
same,Dissolution After Heating,"M4N 50 mg/mL in Sesame Oil, 60° C.",Y at 60 °C
same,Dissolution After Rotation,M4N 50 mg/mL in Soybean Oil,N
same,Dissolution After Heating,"M4N 50 mg/mL in Soybean Oil, 60° C.",Y at 60 °C
same,Dissolution After Rotation,"M4N 52 mg/mL in 40% Peppermint Oil, 40% PEG 400, 20% Glycerol",N
same,Dissolution After Heating,"M4N 52 mg/mL in 40% Peppermint Oil, 40% PEG 400, 20% Glycerol, 40° C.",Y at 40 °C
same,Dissolution After Rotation,"M4N 59 mg/mL in 45% Peppermint Oil, 45% PEG 400, 10% Glycerol",N
same,Dissolution After Heating,"M4N 59 mg/mL in 45% Peppermint Oil, 45% PEG 400, 10% Glycerol, 40° C.",Y at 40 °C
same,Dissolution After Rotation,"M4N 60 mg/mL in 0.4% (v/v) Cinnamaldehyde, 5% (w/v) Beeswax, 94.5% (v/v) Olive Oil",N
same,Dissolution After Heating,"M4N 60 mg/mL in 0.4% (v/v) Cinnamaldehyde, 5% (w/v) Beeswax, 94.5% (v/v) Olive Oil, 50° C.",Y at 50 °C
same,Dissolution After Rotation,"M4N 60 mg/mL in 33% Peppermint Oil, 33% Tween ® 20, 33% PEG 400",N
same,Dissolution After Heating,"M4N 60 mg/mL in 33% Peppermint Oil, 33% Tween ® 20, 33% PEG 400, 40° C.",Y at 40 °C
same,Dissolution After Rotation,"M4N 60 mg/mL in 50% Peppermint Oil, 50% PEG 300",N
same,Dissolution After Heating,"M4N 60 mg/mL in 50% Peppermint Oil, 50% PEG 300, 35° C.",Y at 35 °C
same,Dissolution After Rotation,"M4N 60 mg/mL in 50% Peppermint Oil, 50% PEG 400",N
same,Dissolution After Heating,"M4N 60 mg/mL in 50% Peppermint Oil, 50% PEG 400, 40° C.",Y at 40 °C
same,Dissolution After Rotation,"M4N 60 mg/mL in 50% Peppermint Oil, 50% Sesame Oil",N
same,Dissolution After Heating,"M4N 60 mg/mL in 50% Peppermint Oil, 50% Sesame Oil, 40° C.",Y at 40 °C
same,Dissolution After Rotation,"M4N 60 mg/mL in 50% Peppermint Oil, 50% Tween ® 20",N
same,Dissolution After Heating,"M4N 60 mg/mL in 50% Peppermint Oil, 50% Tween ® 20, 40° C.",Y at 40 °C
same,Dissolution After Rotation,"M4N 60 mg/mL in 60% Peppermint Oil, 40% PEG 300",N
same,Dissolution After Heating,"M4N 60 mg/mL in 60% Peppermint Oil, 40% PEG 300, 40° C.",Y at 40 °C
same,Dissolution After Rotation,"M4N 60 mg/mL in 60% Peppermint Oil, 40% PEG 400",N
same,Dissolution After Heating,"M4N 60 mg/mL in 60% Peppermint Oil, 40% PEG 400, 40° C.",Y at 40 °C
same,Dissolution After Rotation,"M4N 60 mg/mL in 80% Olive Oil, 20% Soybean Oil",N
same,Dissolution After Heating,"M4N 60 mg/mL in 80% Olive Oil, 20% Soybean Oil, 70° C.",Y at 70 °C
same,Dissolution After Rotation,"M4N 60 mg/mL in 85% Sesame Oil, 15% Tween ® 20",N
same,Dissolution After Heating,"M4N 60 mg/mL in 85% Sesame Oil, 15% Tween ® 20, 55° C.",Y at 55 °C
